# PubChem BioAssay AID2685 (National Center for Advancing Translational Sciences (NCATS), 2010)
# Some of the results follow. Shown are side measurements of this screen, not its main read-out; they come without a call. The list favours compounds with an active or inconclusive main result. Potencies come from curve fits of mixed quality, noted in brackets.
# Experiment: qHTS Assay for Lipid Storage Modulators in Drosophila S3 Cells;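 for cell number change: cells counted by Cell Tracker Red CMTPX staining in the red channel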
# Settings: BODIPY lipid droplet fluorescence, 18-24 h; for cell number change: measured here: cell count max response, cells fed with added oleic acid
# In short: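 Drosophila S3 cells loaded with oleic acid (400 uM, as added) and compounds at several concentrations; lipid droplets imaged by 488-nm laser-scanning cytometry, 500–530 nm intensity and object ratio to cell channel. Percent activity normalized to 20 uM Triacsin C.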
# [1] = measured here: lipid fluorescence (Fed channel) AC50, cells fed with added oleic acid
# [2] = measured here: cell number channel AC50, cells fed with added oleic acid
Compound,cell number change [%],AC50 [1],AC50 [2]
CN(C)C(=O)c1ccc(NC(=O)CSc2nnc(-c3cccs3)n2N)cc1,5.1,"4.61 nM [rising, full curve, poor fit]",–
CCN1CCN(C(=O)c2ccc(Cl)c(S(=O)(=O)N(C)c3ccccc3)c2)CC1,-10.8,"10300 nM [falling, partial curve]",–
C=Cn1nc(C)c2ccccc2c1=O,–,"6510 nM [rising, partial curve, poor fit]",–
Cc1oc(-c2ccc(Cl)cc2)nc1CS(=O)CC(=O)NCCCN1CCN(Cc2ccccc2)CC1 (centres undefined),-49.2,–,"29100 nM [falling, single point]"
CN(C)CCN1C(=O)C(=O)/C(=C(/O)c2ccc(S(=O)(=O)N3CCOCC3)cc2)C1c1ccc(F)cc1 (centres undefined),-11.9,–,–
Cc1cccc(N(C(=O)c2csnn2)C(C(=O)NCc2ccccc2)c2ccc(C)o2)c1 (centres undefined),4.05,–,"820 nM [rising, full curve]"
O=c1c(-c2ccc3c(c2)OCCO3)coc2cc(O)cc(O)c12,–,–,"184 nM [falling, partial curve]"
Cc1nn(C2CCS(=O)(=O)C2)c(Cl)c1/C=C/C(=O)OCC(=O)Nc1ccc2c(c1)OCO2 (centres undefined),16,–,–
O=C(c1cccc(S(=O)(=O)N2CCCCCC2)c1)N1CCN(c2ccccc2F)CC1,-1.89,"20600 nM [falling, single point]",–
NC(=O)c1cc([N+](=O)[O-])c(Cl)cc1NCc1ccccn1,-35.5,–,"10300 nM [falling, partial curve]"
Cc1cc(/C=N\NC(=O)CC(=O)NC2CCCCC2)c(C)n1-c1ccc(Cl)c(Cl)c1,8.05,–,"206 nM [rising, full curve, poor fit]"
COC(=O)CC1Oc2ccccc2N(Cc2ccc(C)cc2)C1=O (centres undefined),-3.44,"206 nM [falling, full curve, poor fit]",–
Cc1cc(O)ccc1N1C(=O)c2cccc3cc([N+](=O)[O-])cc(c23)C1=O,18.1,"4.61 nM [rising, full curve, poor fit]","5.17 nM [rising, full curve, poor fit]"
Cc1cc(=O)oc2c(CN3CCCC3)c(O)ccc12,-9.72,–,–
COc1ccc(S(=O)(=O)Nc2ccc3c(c2)N(C(C)=O)CCC3)cc1OC,-1.1,"1840 nM [falling, partial curve]",–
CC(=O)c1ccc(OCCCC(=O)Nc2ccc(C)c(S(=O)(=O)N3CCOCC3)c2)cc1,-99.7,"23100 nM [falling, single point]","7310 nM [falling, partial curve]"

# Record cards, from the list above.
# CN(C)CCN1C(=O)C(=O)/C(=C(/O)c2ccc(S(=O)(=O)N3CCOCC3)cc2)C1c1ccc(F)cc1 (centres undefined) is listed with cell number change [%]: -11.9
# Cc1cccc(N(C(=O)c2csnn2)C(C(=O)NCc2ccccc2)c2ccc(C)o2)c1 (centres undefined) is listed with cell number change [%]: 4.05; AC50 [2]: 820 nM [rising, full curve]
